These are yes or no findings as the source states them, for the method shown. Some results given as binding are weak or reduced against the parent protein; the word gives no strength.
Target: T1, lexA-Mek1 (yeast) (UniProt P24719)
T1 sequence: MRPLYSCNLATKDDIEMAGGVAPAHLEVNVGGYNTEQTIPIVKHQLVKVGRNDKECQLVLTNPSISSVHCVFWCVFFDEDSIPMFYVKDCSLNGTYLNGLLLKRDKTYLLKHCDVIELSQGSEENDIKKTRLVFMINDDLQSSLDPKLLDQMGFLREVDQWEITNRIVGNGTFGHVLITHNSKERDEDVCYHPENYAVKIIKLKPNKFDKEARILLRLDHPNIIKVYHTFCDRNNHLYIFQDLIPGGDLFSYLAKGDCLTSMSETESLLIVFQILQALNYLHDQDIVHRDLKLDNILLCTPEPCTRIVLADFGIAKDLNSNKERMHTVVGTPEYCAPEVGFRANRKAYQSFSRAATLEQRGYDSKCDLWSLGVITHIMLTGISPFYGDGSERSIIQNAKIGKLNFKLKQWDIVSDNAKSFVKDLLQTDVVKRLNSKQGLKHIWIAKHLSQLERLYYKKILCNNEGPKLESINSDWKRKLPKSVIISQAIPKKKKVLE
Test: two-hybrid; directed test: lexA and GAD plasmids co-transformed into L40; ten-fold dilutions spotted on SD-Leu-Trp-His (HIS3) and beta-galactosidase filter assay (lacZ), 30°C

B1: GAD-bc (domain or fragment, UniProt P38830 346-402)
chain: NSSQNSTKRKMPSMAQPLNESCLNARPSKRRSKVALGAPNSGASISPIKSRQSTPME
For B1, the binding was “binds”.
